Tested on: R/F pyocin expression (P07990-gfp reporter)
Format: cell-based, Pseudomonas aeruginosa

Q: How did the “pyocin-expressing (GFP) cells” value (PA14 reporter cells, 1 μg/ml ciprofloxacin (SOS induction)) turn out when `O=C(O)c1cn(C2CC2)c2cc(N3CCNCC3)c(F)cc2c1=O` [ciprofloxacin] was run?
A: more pyocin-expressing cells were observed

Q: What about the “pyocin-ON (GFP-positive) cells” value (ΔrecA strain, 0.03 μg/ml ciprofloxacin, 135 min) of the same molecule?
A: very few pyocin-ON cells, irrespective of ciprofloxacin treatment

Q: And the “proportion of pyocin-ON cells of the total cells observed” value (ΔxerC or ΔxerC ΔrecA strain, 0.03 μg/ml ciprofloxacin, 135 min)?
A: at least ⅓
